Data: patent US20150017230A1 (ACADEMIA SINICA, published 2015)
No constants are given. Whether binding was seen depends on the method and setting. Some entries that bind do so weakly or less than the wild type. For some of these results: Tags and fused reporters may be left off the sequences shown.

Legend:
[1] = biological target: T1, human epithelial cell adhesion molecule (EpCAM), endogenous in SAS and other cancer cells (human) (UniProt P16422); experiment: summary table; grades are cellular ELISA OD 490nm classes
T1 sequence: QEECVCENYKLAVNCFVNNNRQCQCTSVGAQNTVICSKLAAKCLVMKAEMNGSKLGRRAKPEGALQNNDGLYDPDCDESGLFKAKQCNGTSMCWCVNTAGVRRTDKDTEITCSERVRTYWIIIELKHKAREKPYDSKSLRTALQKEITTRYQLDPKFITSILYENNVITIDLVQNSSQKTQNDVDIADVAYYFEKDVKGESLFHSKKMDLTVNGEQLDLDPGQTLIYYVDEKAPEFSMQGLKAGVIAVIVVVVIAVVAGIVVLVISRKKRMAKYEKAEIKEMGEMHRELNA

[2] = biological target: T1, human epithelial cell adhesion molecule (EpCAM), endogenous in SAS and other cancer cells (human); experiment: Western blot of SAS, HCT116 and NNM lysates
[3] = biological target: T1, human epithelial cell adhesion molecule (EpCAM), endogenous in SAS and other cancer cells (human); experiment: summary statement on EpAb2-6 in the results
[4] = biological target: T1, human epithelial cell adhesion molecule (EpCAM), endogenous in SAS and other cancer cells (human); experiment: cellular ELISA on SAS cells, OD490nm
[5] = biological target: T2, wild-type human EpCAM expressed from pcDNA3.1/V5-His in HEK293 cells (human) (UniProt P16422); experiment: Western blot of lysates of HEK293 cells transfected with EpCAM-V5 constructs
T2 sequence: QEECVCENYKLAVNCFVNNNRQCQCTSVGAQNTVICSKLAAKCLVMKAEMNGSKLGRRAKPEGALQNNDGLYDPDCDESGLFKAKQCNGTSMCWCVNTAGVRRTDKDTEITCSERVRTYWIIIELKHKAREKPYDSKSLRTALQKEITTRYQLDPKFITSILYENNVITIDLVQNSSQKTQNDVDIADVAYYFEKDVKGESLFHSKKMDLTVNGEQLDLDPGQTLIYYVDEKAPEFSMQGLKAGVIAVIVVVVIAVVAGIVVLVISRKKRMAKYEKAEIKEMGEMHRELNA

[6] = biological target: T1, human epithelial cell adhesion molecule (EpCAM), endogenous in SAS and other cancer cells (human); experiment: immunofluorescence staining of SAS, HCT116 and NNM cells
[7] = biological target: T1, human epithelial cell adhesion molecule (EpCAM), endogenous in SAS and other cancer cells (human); experiment: Western blot of NNM, SAS and HCT116 lysates

Measured: binding

B1: EpAb2-6 (antibody, V domains shown)
VH: EVQLVESGPELKKPGETVKISCKASGYTFTDYSMHWVKQAPGKGLKWMGWINTETGEPTFADDFKGRFAFSLETSARTTYLQINNLKNEDTATYFCARTAVYWGQGTSLTVSS
VL: DIQLTQSPSSLSASLGERVSLTCRASQEISVSLSWLQQKPDGTIKRLIYATSTLDSGVPKRFSGSRSGSDYSLTISSLESEDFADYYCLQYASYPWTFGGGTKLEIKR
notes: Mouse hybridoma monoclonal IgG; also called mEpAb2-6; murine EpAb2-6
binds: all assays above
